Assay results as given in paper PMC11039647.
Results are given in words; binding and its absence hold for the method and conditions named. Binding seen in cells or lysates may run through a third protein. Some entries that bind do so weakly or less than the wild type. One block for each substance: values may come before it.

Sequences of proteins named here, by UniProt entry; tags and fusion partners are left off. A change or cut given only in a name is not applied to a line headed by its entry.
UniProt P43694: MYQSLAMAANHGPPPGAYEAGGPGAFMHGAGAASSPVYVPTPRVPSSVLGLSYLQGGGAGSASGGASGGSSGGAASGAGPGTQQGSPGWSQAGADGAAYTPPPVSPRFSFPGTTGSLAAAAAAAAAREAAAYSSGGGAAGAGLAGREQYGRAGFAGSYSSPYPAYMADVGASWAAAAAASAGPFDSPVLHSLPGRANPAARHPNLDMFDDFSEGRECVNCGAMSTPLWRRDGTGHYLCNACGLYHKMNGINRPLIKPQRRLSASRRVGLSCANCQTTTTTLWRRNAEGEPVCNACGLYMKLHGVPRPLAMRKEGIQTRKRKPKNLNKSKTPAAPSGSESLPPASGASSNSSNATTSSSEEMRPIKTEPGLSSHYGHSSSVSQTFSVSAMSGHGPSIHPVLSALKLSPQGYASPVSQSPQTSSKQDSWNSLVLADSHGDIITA
UniProt Q04206: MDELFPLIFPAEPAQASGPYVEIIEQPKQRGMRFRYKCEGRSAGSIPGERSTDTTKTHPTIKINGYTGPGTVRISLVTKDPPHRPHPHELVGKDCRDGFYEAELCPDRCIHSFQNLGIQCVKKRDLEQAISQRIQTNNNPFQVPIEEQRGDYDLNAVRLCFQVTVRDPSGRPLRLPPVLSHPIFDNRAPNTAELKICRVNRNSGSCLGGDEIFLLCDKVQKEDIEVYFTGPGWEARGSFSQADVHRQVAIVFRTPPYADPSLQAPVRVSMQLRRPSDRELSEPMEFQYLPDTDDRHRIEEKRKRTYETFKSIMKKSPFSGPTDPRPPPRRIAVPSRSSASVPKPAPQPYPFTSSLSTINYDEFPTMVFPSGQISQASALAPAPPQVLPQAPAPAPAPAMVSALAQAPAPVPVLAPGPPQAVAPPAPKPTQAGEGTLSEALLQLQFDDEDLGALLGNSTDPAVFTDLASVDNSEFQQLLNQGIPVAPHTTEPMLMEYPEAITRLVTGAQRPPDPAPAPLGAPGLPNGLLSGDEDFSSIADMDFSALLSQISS
UniProt Q13547: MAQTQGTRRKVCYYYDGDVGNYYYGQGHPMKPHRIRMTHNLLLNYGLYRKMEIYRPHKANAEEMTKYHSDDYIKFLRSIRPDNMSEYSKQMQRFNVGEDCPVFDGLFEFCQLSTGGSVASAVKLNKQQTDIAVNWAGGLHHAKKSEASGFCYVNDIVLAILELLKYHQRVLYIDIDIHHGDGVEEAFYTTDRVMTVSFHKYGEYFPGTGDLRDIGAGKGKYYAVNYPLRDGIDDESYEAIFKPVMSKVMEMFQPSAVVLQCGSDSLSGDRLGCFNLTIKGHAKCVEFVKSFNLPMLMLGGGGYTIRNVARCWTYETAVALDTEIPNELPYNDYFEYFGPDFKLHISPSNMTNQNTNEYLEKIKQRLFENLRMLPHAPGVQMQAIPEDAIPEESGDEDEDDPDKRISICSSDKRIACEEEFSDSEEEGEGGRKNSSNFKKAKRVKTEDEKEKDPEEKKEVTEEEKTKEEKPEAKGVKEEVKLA

How the values were obtained:
Myc-GATA4 = Myc-GATA4 (UniProt P43694); assay: co-IP; HEK293T cells co-transfected with tagged plasmids, lysates in TNE lysis buffer; immunoprecipitation with anti-GFP or anti-Myc antibody or Flag-affinity magnetic beads, western blot for the tag of the partner; for HA-HDAC1 with GFP-p65: with or without co-transfected Flag-GATA4
[1] = molecular target: p65 (NF-κB transcription factor family), endogenous in T47D cells (human (endogenous in T47D)) (UniProt Q04206); assay: co-IP; endogenous proteins in T47D cell lysates (TNE lysis buffer: Tris-HCl pH 7.4 20 mM, NaCl 100 mM, EDTA 1 mM, NP-40 0.5%); immunoprecipitation with anti-p65 or anti-GATA4 antibody, Protein A/G magnetic beads, western blot
Flag-GATA4 = Flag-GATA4 (UniProt P43694); assay: co-IP; HEK293T cells co-transfected with tagged plasmids, lysates in TNE lysis buffer; immunoprecipitation with anti-GFP or anti-Myc antibody or Flag-affinity magnetic beads, western blot for the tag of the partner; for HA-HDAC1 with GFP-p65: with or without co-transfected Flag-GATA4
GFP-p65 = GFP-p65 (UniProt Q04206); assay: as above
GST-GATA4 = GST-GATA4 (UniProt P43694); assay: pull-down; GST fusion protein expressed in E. coli BL21 and purified on GST-tag purification resin as bait; partner in lysate of transfected HEK293T cells; western blot; only the target purified
GST-p65 = GST-p65 (UniProt Q04206); assay: as above
[2] = molecular target: GATA-binding protein 4 (GATA4), endogenous in T47D cells (human (endogenous in T47D)) (UniProt P43694); assay: co-IP; endogenous proteins in T47D cell lysates (TNE lysis buffer: Tris-HCl pH 7.4 20 mM, NaCl 100 mM, EDTA 1 mM, NP-40 0.5%); immunoprecipitation with anti-p65 or anti-GATA4 antibody, Protein A/G magnetic beads, western blot

binding [1]: binds
Substance: GATA-binding protein 4 (GATA4), endogenous in T47D cells (from UniProt P43694 1-442)

binding (Flag-GATA4): binds
binding (GFP-p65): binds
binding (GST-GATA4): binds
Substance: HA-HDAC1 (from UniProt Q13547 1-482) (enzyme)

More lines, now with the values behind:

Substance: GFP-p65 (from UniProt Q04206 1-551)
binding (Myc-GATA4): binds

Substance: Flag-GATA4 (from UniProt P43694 1-442)
binding (GFP-p65): binds
binding (GST-p65): binds

Substance: HDAC1, endogenous in T47D cells (from UniProt Q13547 1-482) (enzyme)
binding [2]: binds
